Measured values: paper PMC4930625

Tests used:
[1] = molecular target: GST-FcaA3Z2-HA (domestic cat (Felis catus)); test: pull-down; GST, GST-FcaA3Z2-HA or GST-FcaA3Z3-HA on glutathione Sepharose beads, incubated overnight at 4 °C with lysate of HEK293T cells expressing FIV Vif-V5; mild lysis buffer (50 mM Tris pH 8, 10 % glycerol, 0.8 % NP-40, 150 mM NaCl); eluted with 25 mM reduced glutathione; immunoblot anti-V5 and anti-HA; only the target purified
[2] = molecular target: GST-FcaA3Z3-HA (domestic cat (Felis catus)); test: as above

B1: FIV Vif-V5 (Vif of FIV-34TF10, domestic cat FIV, codon-optimized gene) (protein, UniProt P16089 1-251)
chain: MSEEDWQVSRRLFAVLQGGVNSAMLYISRLPPDEREKYKKDFKKRLFDTETGFIKRLRKAEGIKWSFHTRDYYIGYVREMVAGSTTSLSLRMYIYISNPLWHSQYRPGLKNFNKEWPFVNMWIKTGFMWDDIEKQNICIGGEVSPGWGPGMVGIAIKAFSCGERKIEATPVMIIRGEIDPKKWCGDCWNLMCLRNSPPKTLQRLAMLACGVPAKKWRGCCNQRFVSPYRTPADLEVIQSKPSWNLLWSGEL
binding [1]: binds
binding [2]: binds

No constants are given. Whether binding was seen depends on the method and setting. Binding seen in cells or lysates may run through a third protein. Binding can be weak; no strength is given. Sequences can lack the tags named with a protein.
